Results are given in words; binding and its absence hold for the method and conditions named. Some binding calls cover weakened binding; strength is not graded here.
T1: Oncostatin M receptor (OSMR) MaMTH-HTS bait (UniProt Q99650)
T1 sequence: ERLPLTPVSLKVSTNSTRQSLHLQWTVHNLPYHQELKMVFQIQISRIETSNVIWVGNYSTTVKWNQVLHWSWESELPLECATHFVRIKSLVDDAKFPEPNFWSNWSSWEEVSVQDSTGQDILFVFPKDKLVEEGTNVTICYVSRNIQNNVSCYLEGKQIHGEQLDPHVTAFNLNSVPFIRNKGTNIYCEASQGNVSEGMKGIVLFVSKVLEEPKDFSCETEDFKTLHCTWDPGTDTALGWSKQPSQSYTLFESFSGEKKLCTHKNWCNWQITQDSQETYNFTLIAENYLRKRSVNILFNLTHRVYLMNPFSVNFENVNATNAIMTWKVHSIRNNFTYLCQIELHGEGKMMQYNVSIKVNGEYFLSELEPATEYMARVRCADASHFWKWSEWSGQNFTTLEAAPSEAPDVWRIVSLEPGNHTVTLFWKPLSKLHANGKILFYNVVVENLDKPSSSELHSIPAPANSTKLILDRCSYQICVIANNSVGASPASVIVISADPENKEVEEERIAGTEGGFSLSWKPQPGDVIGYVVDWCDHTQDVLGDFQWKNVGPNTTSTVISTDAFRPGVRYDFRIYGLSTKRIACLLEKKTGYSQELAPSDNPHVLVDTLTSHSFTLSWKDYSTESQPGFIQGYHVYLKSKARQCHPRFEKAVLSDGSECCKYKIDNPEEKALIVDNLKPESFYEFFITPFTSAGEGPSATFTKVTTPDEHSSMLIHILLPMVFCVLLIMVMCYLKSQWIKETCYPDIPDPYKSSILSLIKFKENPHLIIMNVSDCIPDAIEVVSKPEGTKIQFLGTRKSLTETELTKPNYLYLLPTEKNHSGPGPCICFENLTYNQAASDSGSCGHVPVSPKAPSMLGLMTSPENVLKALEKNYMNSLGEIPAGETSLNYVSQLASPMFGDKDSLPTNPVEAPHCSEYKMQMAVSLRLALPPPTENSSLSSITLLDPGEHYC

Sequences of proteins named here, by UniProt entry; tags and fusion partners are left off. Residues count along the entry.
UniProt P07585, residues 31-359: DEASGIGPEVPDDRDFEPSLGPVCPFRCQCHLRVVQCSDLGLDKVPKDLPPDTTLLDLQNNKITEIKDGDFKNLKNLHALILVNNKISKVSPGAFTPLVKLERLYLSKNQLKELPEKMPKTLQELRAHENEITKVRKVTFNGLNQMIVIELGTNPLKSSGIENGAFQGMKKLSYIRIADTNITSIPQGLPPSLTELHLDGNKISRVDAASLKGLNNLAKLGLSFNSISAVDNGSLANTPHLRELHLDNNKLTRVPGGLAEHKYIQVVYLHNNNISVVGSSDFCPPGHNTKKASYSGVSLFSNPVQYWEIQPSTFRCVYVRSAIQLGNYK

B1: GPBP1 MaMTH-HTS prey (protein, UniProt Q86WP2 1-473)
chain: MAQHDFAPAWLNFPTPPSSTKSSLNFEKHSENFAWTENRYDVNRRRHNSSDGFDSAIGRPNGGNFGRKEKNGWRTHGRNGTENINHRGGYHGGSSRSRSSIFHAGKSQGLHENNIPDNETGRKEDKRERKQFEAEDFPSLNPEYEREPNHNKSLAAGVWEYPPNPKSRAPRMLVIKKGNTKDLQLSGFPVVGNLPSQPVKNGTGPSVYKGLVPKPAAPPTKPTQWKSQTKENKVGTSFPHESTFGVGNFNAFKSTAKNFSPSTNSVKECNRSNSSSPVDKLNQQPRLTKLTRMRTDKKSEFLKALKRDRVEEEHEDESRAGSEKDDDSFNLHNSNSTHQERDINRNFDENEIPQENGNASVISQQIIRSSTFPQTDVLSSSLEAEHRLLKEMGWQEDSENDETCAPLTEDEMREFQVISEQLQKNGLRKNGILKNGLICDFKFGPWKNSTFKPTTENDDTETSSSDTSDDDDV
B2: …2 MaMTH-HTS prey (protein, UniProt Q8N6G5 1-542)
chain: MPRRGLILHTRTHWLLLGLALLCSLVLFMYLLECAPQTDGNASLPGVVGENYGKEYYQALLQEQEEHYQTRATSLKRQIAQLKQELQEMSEKMRSLQERRNVGANGIGYQSNKEQAPSDLLEFLHSQIDKAEVSIGAKLPSEYGVIPFESFTLMKVFQLEMGLTRHPEEKPVRKDKRDELVEVIEAGLEVINNPDEDDEQEDEEGPLGEKLIFNENDFVEGYYRTERDKGTQYELFFKKADLTEYRHVTLFRPFGPLMKVKSEMIDITRSIINIIVPLAERTEAFVQFMQNFRDVCIHQDKKIHLTVVYFGKEGLSKVKSILESVTSESNFHNYTLVSLNEEFNRGRGLNVGARAWDKGEVLMFFCDVDIYFSAEFLNSCRLNAEPGKKVFYPVVFSLYNPAIVYANQEVPPPVEQQLVHKKDSGFWRDFGFGMTCQYRSDFLTIGGFDMEVKGWGGEDVHLYRKYLHGDLIVIRTPVPGLFHLWHEKRCADELTPEQYRMCIQSKAMNEASHSHLGMLVFREEIETHLHKQAYRTNSEAVG
B3: CLEC2B MaMTH-HTS prey (protein, UniProt Q92478 1-149)
chain: MMTKHKKCFIIVGVLITTNIITLIVKLTRDSQSLCPYDWIGFQNKCYYFSKEEGDWNSSKYNCSTQHADLTIIDNIEEMNFLRRYKCSSDHWIGLKMAKNRTGQWVDGATFTKSFGMRGSEGCAYLSDDGAATARCYTERKWICRKRIH
B4: ST3GAL4 MaMTH-HTS prey (protein, UniProt Q11206 1-333)
chain: MVSKSRWKLLAMLALVLVVMVWYSISREDRYIELFYFPIPEKKEPCLQGEAESKASKLFGNYSRDQPIFLRLEDYFWVKTPSAYELPYGTKGSEDLLLRVLAITSSSIPKNIQSLRCRRCVVVGNGHRLRNSSLGDAINKYDVVIRLNNAPVAGYEGDVGSKTTMRLFYPESAHFDPKVENNPDTLLVLVAFKAMDFHWIETILSDKKRVRKGFWKQPPLIWDVNPKQIRILNPFFMEIAADKLLSLPMQQPRKIKQKPTTGLLAITLALHLCDLVHIAGFGYPDAYNKKQTIHYYEQITLKSMAGSGHNVSQEALAIKRMLEMGAIKNLTSF
B5: NAT8 MaMTH-HTS prey (protein, UniProt Q9UHE5 1-227)
chain: MAPCHIRKYQESDRQWVVGLLSRGMAEHAPATFRQLLKLPRTLILLLGGPLALLLVSGSWLLALVFSISLFPALWFLAKKPWTEYVDMTLCTDMSDITKSYLSERGSCFWVAESEEKVVGMVGALPVDDPTLREKRLQLFHLFVDSEHRRQGIAKALVRTVLQFARDQGYSEVILDTGTIQLSAMALYQSMGFKKTGQSFFCVWARLVALHTVHFIYHLPSSKVGSL
B6: GC MaMTH-HTS prey (protein, UniProt P02774 17-474)
chain: LERGRDYEKNKVCKEFSHLGKEDFTSLSLVLYSRKFPSGTFEQVSQLVKEVVSLTEACCAEGADPDCYDTRTSALSAKSCESNSPFPVHPGTAECCTKEGLERKLCMAALKHQPQEFPTYVEPTNDEICEAFRKDPKEYANQFMWEYSTNYGQAPLSLLVSYTKSYLSMVGSCCTSASPTVCFLKERLQLKHLSLLTTLSNRVCSQYAAYGEKKSRLSNLIKLAQKVPTADLEDVLPLAEDITNILSKCCESASEDCMAKELPEHTVKLCDNLSTKNSKFEDCCQEKTAMDVFVCTYFMPAAQLPELPDVELPTNKDVCDPGNTKVMDKYTFELSRRTHLPEVFLSKVLEPTLKSLGECCDVEDSTTCFNAKGPLLKKELSSFIDKGQELCADYSENTFTEYKKKLAERLKAKLPDATPTELAKLVNKHSDFASNCCSINSPPLYCDSEIDAELKNIL
B7: IMMP2L MaMTH-HTS prey (protein, UniProt Q96T52 1-175)
chain: MAQSQGWVKRYIKAFCKGFFVAVPVAVTFLDRVACVARVEGASMQPSLNPGGSQSSDVVLLNHWKVRNFEVHRGDIVSLVSPKNPEQKIIKRVIALEGDIVRTIGHKNRYVKVPRGHIWVEGDHHGHSFDSNSFGPVSLGLLHAHATHILWPPERWQKLESVLPPERLPVQREEE
B8: CREB3 MaMTH-HTS prey (protein, UniProt O43889 1-371)
chain: MELELDAGDQDLLAFLLEESGDLGTAPDEAVRAPLDWALPLSEVPSDWEVDDLLCSLLSPPASLNILSSSNPCLVHHDHTYSLPRETVSMDLESESCRKEGTQMTPQHMEELAEQEIARLVLTDEEKSLLEKEGLILPETLPLTKTEEQILKRVRRKIRNKRSAQESRRKKKVYVGGLESRVLKYTAQNMELQNKVQLLEEQNLSLLDQLRKLQAMVIEISNKTSSSSTCILVLLVSFCLLLVPAMYSSDTRGSLPAEHGVLSRQLRALPSEDPYQLELPALQSEVPKDSTHQWLDGSDCVLQAPGNTSCLLHYMPQAPSAEPPLEWPFPDLFSEPLCRGPILPLQANLTRKGGWLPTGSPSVILQDRYSG

biological target: T1, Oncostatin M receptor (OSMR) MaMTH-HTS bait; test: two-hybrid

| binding | Molecule |
| --- | --- |
| binds | EIF2C3 MaMTH-HTS prey (from UniProt Q9H9G7 1-860) |
| binds | DCN MaMTH-HTS prey (from UniProt P07585 31-359) |
| binds | B1 |
| binds | B2 |
| binds | B3 |
| binds | B4 |
| binds | B5 |
| binds | B6 |
| binds | B7 |
| binds | B8 |
